Data published in article PMC6361937.
No constants are given. Whether binding was seen depends on the method and setting.

By UniProt entry, the sequences of proteins in these tests, tags left out. Where a name states a change or a piece, a line headed by the entry shows the natural chain unless it says otherwise.
UniProt P27017: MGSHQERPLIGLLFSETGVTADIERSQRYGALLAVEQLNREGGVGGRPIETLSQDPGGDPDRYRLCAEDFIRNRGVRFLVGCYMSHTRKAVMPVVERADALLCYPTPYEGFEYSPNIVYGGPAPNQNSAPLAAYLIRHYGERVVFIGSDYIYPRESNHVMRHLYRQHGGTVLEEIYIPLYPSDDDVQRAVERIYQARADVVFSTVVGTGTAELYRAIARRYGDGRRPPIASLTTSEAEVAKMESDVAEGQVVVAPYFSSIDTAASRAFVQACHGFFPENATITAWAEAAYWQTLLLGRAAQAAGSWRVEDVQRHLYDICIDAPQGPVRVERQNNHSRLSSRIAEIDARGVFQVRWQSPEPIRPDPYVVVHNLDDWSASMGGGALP
UniProt P20366: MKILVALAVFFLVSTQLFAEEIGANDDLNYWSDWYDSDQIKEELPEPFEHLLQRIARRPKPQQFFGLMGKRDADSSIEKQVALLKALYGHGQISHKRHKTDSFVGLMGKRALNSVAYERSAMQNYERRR

Target: amidase AmiC (UniProt P27017)
Assay: MST; RED-NHS labelled AmiC at 31 nM final, increasing concentrations of SP; 50 mM Tris-HCl pH 7.5, 150 mM NaCl, 10 mM MgCl2, 0.05% Tween-20; 25 °C; Monolith NT.115Pico; both purified

RPKPQQFFGLM (peptide, UniProt P20366 58-68) [Substance P]
binding: no binding
